# Results as given in patent US20040097478A1, “Remedies for retina and choroid diseases containing steroids as the active ingredient” (SANTEN PHARMACEUTICAL O., LTD, priority 2001, published 2004).
# Where two headings read alike, the source gives them in different places.
# Tested on: Laser-induced rat choroidal neovascularization models
# Conditions: for Choroidal neovascularization inhibition rate (%): versus vehicle administration group
# Experimental: A one ml/kg mixed solution (7:1) of a 5% ketamine hydrochloride injection and a 2% xylazine hydrochloride injection was administered intramuscularly to rats to anesthetize them systemically. A 0.5% tropicamide-0.5% phenylephrine hydrochloride ophthalmic solution was instilled into the eyes to cause mydriasis, and then photocoagulation was performed with a krypton laser photocoagulation apparatus. The photocoagulation was carried out in a posterior section of ocular fundus at eight spots per eye sparsely avoiding thick retinal vessels and focusing on the retinal depth (coagulation conditions: spot size: 100 μm, output: 100 mW, coagulation time: 0.1 sec). After the photocoagulation, the ocular fundus was photographed to confirm laser irradiation sites.
# Triamcinolone was suspended in the phosphate buffers as a comparative group so that its concentrations were 0.2 mg/ml and 2 mg/ml, and each suspension was administered similarly. The phosphate buffer was administered similarly as a vehicle administration group.
# On seventh day after the photocoagulation, 0.1 ml of 10% fluorescein was injected from carotid vein, and fluorescein fundus angiography was performed. In the fluorescein fundus angiography, a spot where fluorescence diapedesis was not observed was judged as negative, and a spot where fluorescence diapedesis was observed was judged as positive. Each neovascularization exhibition rate was obtained by calculating the ratio of a positive spot number to eight spots irradiated with the laser, and each choroidal neovascularization inhibition rate was calculated according to the following equation.
# Choroidal neovascularization inhibition rate (%)=(Ao−Ax)/Ao×100
# Ao: Neovascularization exhibition rate of vehicle administration group
# Ax: Neovascularization exhibition rate of drug administration group
compound,measurement,setting,value
"C[C@H]1C[C@H]2[C@@H]3CCC4=CC(=O)C=C[C@]4(C)[C@@]3(F)[C@@H](O)C[C@]2(C)[C@@]1(O)C(=O)COP(=O)([O-])[O-].[Na+].[Na+] [Betamethasone sodium phosphate, betamethasone sodium phosphate]",Inhibitory effect on choroidal neovascularization relative to triamcinolone,10 μg/eye/day,about three times stronger
same,Choroidal neovascularization inhibition rate (%),10 μg/eye/day subconjunctival for seven days,36.3%
same,Choroidal neovascularization inhibition rate (%),100 μg/eye/day subconjunctival for seven days,79.4%
